{"source": "PubChem BioAssay AID485314", "about": "(National Center for Advancing Translational Sciences (NCATS), 2010)", "note": "Among all 340,000 compounds or so, about 4,500 (1.3%) were called active. Inconclusive results, whose numbers are uncertain, are shown with a selection of clear calls. The call rests on the fitted dose curve; in most records, active means well fitted inhibition curve with a large enough effect; inconclusive means small, poorly fitted or top-dose-only effect, or another doubt; inactive means no such curve, though single readings can be large or run the other way. Potencies beside an inconclusive call are fits to weak or partial responses and may not hold up. On the % scale 0 is the no-effect control and ±100 the full control effect; potency means the concentration at half of the fitted maximal effect."}
{"molecular_target": "DNA polymerase beta (Homo sapiens) (UniProt P06746)", "assay": "qHTS Assay for Inhibitors of DNA Polymerase Beta", "conditions": "Pol beta primer extension/strand displacement, fluorescence kinetic; activity change, negative = inhibition: at 114 µM (top of the series)", "how_it_was_run": "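Enzyme-only controls used 10 nM Pol beta; buffer lacking enzyme served as negative control. Compound preincubated 15 min, then 50 nM substrate added; 0 and 10 min reads at room temperature.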"}
{"smiles": "Cc1ccc(CNC(=O)CCCc2nnc3n(CC(C)C)c(=O)c4sccc4n23)cc1", "activity change, negative = inhibition": "inactive: 2.4%"}
{"smiles": "NS(=O)(=O)c1cccc(NC(=O)c2ccc3nc[nH]c3c2)c1", "Potency": "active: 50.1 µM"}
{"smiles": "Cc1ccc(-c2ccc(C(=O)NCc3ccc(Cl)cc3)o2)c2ccccc12", "Potency": "inconclusive: 89.1 µM [inhibitor, single point]"}
{"smiles": "Cc1ccc(C(=O)N/N=C\\c2cc(Br)c(Br)o2)cn1", "Potency": "inconclusive: 11.2 µM [inhibitor, partial curve, poor fit]"}
{"smiles": "CCOC(=O)N1CCN(Cc2nc(N)nc(Nc3ccc(Oc4ccccc4)cc3)n2)CC1", "Potency": "inconclusive: 39.8 µM [inhibitor, partial curve, poor fit]"}
{"smiles": "CN(C)S(=O)(=O)N1CCN(C(=O)c2ccc3c(c2)OCO3)CC1", "Potency": "inconclusive: 89.1 µM [inhibitor, single point]"}
{"smiles": "COc1ccc(-c2cn3nc(SCC(=O)Nc4cc(C)cc(C)c4)ccc3n2)cc1", "activity change, negative = inhibition": "inactive: 24.3%"}
{"smiles": "Cc1ccc(Cl)cc1Nc1nn2c(=O)c3ccc(C(=O)NC4CCCCC4)cc3nc2s1", "activity change, negative = inhibition": "inactive: -1.7%"}
{"smiles": "Cc1ccccc1C(=O)O/N=C(\\N)c1cccc([N+](=O)[O-])c1", "Potency": "inconclusive: 79.4 µM [inhibitor, partial curve, poor fit]"}
{"smiles": "C=CCNC(=O)c1onc(CSc2cccc3ccccc23)c1C(=O)O", "Potency": "inconclusive: 0.126 µM [inhibitor, full curve, poor fit]"}
{"smiles": "COc1cc(/C=C/C(=O)OCC(=O)N2CCN(S(=O)(=O)c3ccc(C)cc3C)CC2)ccc1O", "Potency": "active: 35.5 µM"}
{"smiles": "C/C(=N\\NC(=O)COc1ccc(C(C)(C)C)cc1)c1ccccc1", "Potency": "inconclusive: 63.1 µM [inhibitor, partial curve]"}
{"smiles": "Cc1cc(NS(=O)(=O)c2cn(C)nc2C)no1", "Potency": "inconclusive: 100 µM [inhibitor, single point]"}
{"smiles": "O=C(Cn1cnc2c(nnn2-c2cccc(Cl)c2)c1=O)NCc1ccccc1", "Potency": "inconclusive: 11.2 µM [inhibitor, full curve]"}
{"smiles": "O=C(NC1CCN(Cc2ccccc2Cl)CC1)c1ccccc1", "Potency": "inconclusive: 89.1 µM [inhibitor, single point]"}
{"smiles": "Cc1nc(-c2ccc(C(=O)Nc3cccc(Br)c3)cc2)cs1", "Potency": "active: 31.6 µM"}
{"smiles": "CCCCCCc1cc2cc(S(=O)(=O)c3ccc(F)cc3)c(=O)oc2cc1O", "Potency": "inconclusive: 28.2 µM [inhibitor, partial curve]"}
{"smiles": "COc1ccccc1-n1c(SCC(=O)N2CCOCC2)nc2ccccc2c1=O", "activity change, negative = inhibition": "inactive: 19.5%"}
{"smiles": "NS(=O)(=O)c1ccc(NC(=O)CSc2cn[nH]n2)cc1", "activity change, negative = inhibition": "inactive: 23.6%"}
{"smiles": "O=S(=O)(c1ccc2nc(Nc3ccc(F)cc3)ccc2c1)N1CCCC1", "activity change, negative = inhibition": "inactive: 1.75%"}
{"smiles": "Cc1nc(-c2ccc(C)c(S(=O)(=O)N3CCC(C(=O)NCc4ccc(F)cc4)CC3)c2)no1", "activity change, negative = inhibition": "inactive: -1.38%"}
{"smiles": "O=C(Nc1cccc2cccnc12)C1CCCC1", "activity change, negative = inhibition": "inactive: 55.7%"}
{"smiles": "O=C(N/N=C/c1cccs1)c1cccc2cc[nH]c12", "Potency": "inconclusive: 3.98 µM [inhibitor, full curve, poor fit]"}
{"smiles": "O=C(Cn1ncc2c3ccccc3n(Cc3cccc(Cl)c3)c2c1=O)N1CCCCCC1", "Potency": "active: 25.1 µM"}
{"smiles": "O=C(c1ccc(S(=O)(=O)N2CCOCC2)cc1)N(c1cccc(Cl)c1)C1C=CS(=O)(=O)C1", "note": "(stereo not given)", "activity change, negative = inhibition": "inactive: 8.6%"}
{"smiles": "Cc1ccc(-c2cn(C[C@H]3CC[C@@H]([C@@H]4CC[C@H](Cn5cc(-c6ccc(C)cc6)nn5)O4)O3)nn2)cc1", "activity change, negative = inhibition": "inactive: 40.9%"}
{"smiles": "O=C(NCc1ccco1)c1ccc2c(c1)N(Cc1cccc(Cl)c1)C(=O)c1ccccc1S2=O", "note": "(stereo not given)", "activity change, negative = inhibition": "inactive: -5.67%"}
{"smiles": "O=C(Nc1ccc(N2CCN(C(=O)c3ccc(Cl)cc3)CC2)cc1)c1cccnc1", "Potency": "inconclusive: 3.16 µM [inhibitor, single point]"}
{"smiles": "CCn1cc(C(=O)NC2CCCCC2)c(=O)c2ccc(C)nc21", "Potency": "inconclusive: 89.1 µM [inhibitor, single point]"}
{"smiles": "CCN(Cc1ccccc1)C(=O)CCS(=O)(=O)c1ccc2c(c1)CCN2C(C)=O", "Potency": "inconclusive: 0.708 µM [inhibitor, full curve, poor fit]"}
{"smiles": "CCc1ccc(NC(=O)C2CCN(S(=O)(=O)c3ccc4c(c3)NC(=O)C(C)S4)CC2)cc1", "note": "(stereo not given)", "Potency": "inconclusive: 22.4 µM [inhibitor, full curve]"}
{"smiles": "Cc1cc(C(=O)Nc2sc3c(c2C#N)CCCC3)no1", "activity change, negative = inhibition": "inactive: 2.9%"}
{"smiles": "CCc1ccc(-c2nc(CSCC(=O)NCc3ccc(C)cc3)c(C)o2)cc1", "Potency": "inconclusive: 89.1 µM [inhibitor, single point]"}
{"smiles": "Cc1cccc2sc(N(Cc3cccnc3)C(=O)COc3ccccc3)nc12", "activity change, negative = inhibition": "inactive: -11.1%"}
{"smiles": "CCOc1ccccc1NC(=O)c1cc2c(=O)[nH]c3ccccc3c2s1", "Potency": "inconclusive: 1.41 µM [inhibitor, full curve, poor fit]"}
{"smiles": "COc1ccc(S(=O)(=O)N2CCCC(C(=O)N3CCN(c4ccccc4)CC3)C2)cc1Cl", "note": "(stereo not given)", "Potency": "inconclusive: 79.4 µM [inhibitor, partial curve]"}
{"smiles": "O=C(/C=C/c1cc([N+](=O)[O-])ccc1OC(F)F)NCc1ccc(Cl)cc1", "Potency": "inconclusive: 3.16 µM [inhibitor, full curve, poor fit]"}
{"smiles": "O=C(CCCl)N(Cc1nc2ccccc2c(=O)[nH]1)Cc1cccs1", "Potency": "inconclusive: 100 µM [inhibitor, single point]"}
{"smiles": "O=C(N/N=C/c1ccccc1)c1ccc(CN2C(=O)c3cccc4cccc2c34)cc1", "Potency": "inconclusive: 12.6 µM [inhibitor, full curve]"}
{"smiles": "CCc1cccc(C)c1NC(=O)CSc1nnc(C)o1", "activity change, negative = inhibition": "inactive: 11%"}
{"smiles": "COc1ccc(Nc2nc(-c3ccccc3F)nc3ccccc23)cc1OC", "Potency": "inconclusive: 39.8 µM [inhibitor, single point]"}
{"smiles": "O=C(CSc1nnc(-c2ccccc2)c(-c2ccccc2)n1)NCc1ccco1", "activity change, negative = inhibition": "inactive: 2.88%"}
{"smiles": "Cc1noc2ncnc(N3CCCC(C(=O)Nc4cccc(C(F)(F)F)c4)C3)c12", "note": "(stereo not given)", "activity change, negative = inhibition": "inactive: -0.636%"}
{"smiles": "O=C(CCNC(=O)c1ccccc1Cl)Nc1ccc(Cl)c(C(F)(F)F)c1", "Potency": "inconclusive: 25.1 µM [inhibitor, single point]"}
{"smiles": "Cc1cc(C)c2c(=O)c3c(oc2c1)C(=O)N(Cc1ccco1)C3c1ccccc1F", "note": "(stereo not given)", "activity change, negative = inhibition": "inactive: 10.3%"}
